The other results are listed elsewhere or left out.
Tests used:
Assay in all cases: log2 fold change, soluble protein after heating vs DMSO (PISA); higher = thermal stabilisation; K562 lysate, 10 uM; active = over 0.2 and 3.5 SD of the protein, either way, in both replicates (recomputed)
Tubastatin A = compound: CN1CCc2c(c3ccccc3n2Cc2ccc(C(=O)NO)cc2)C1 [Tubastatin A]
How it was run: (§1)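 Pellets of K562 cells were dounce-homogenised in PBS pH 7.4 with 1 mM MgCl2, and the crude extract was held at 1 mg/mL protein for a 30 min treatment with 10 μM compound. Aliquots were heated for 3 min over 48°C-58°C and pooled before NP-40 was added to 0.5% at 4°C. The supernatant from 21,000xg for 90 min was quantified by TMTpro 16plex LC-MS/MS with channel sums equalised. Values are reported from duplicates as log-two fold change in thermal stability relative to solvent controls.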

Protein sequences, listed by entry. Tags and fused reporters are not part of them. Lines headed by an entry give the natural chain unless they say otherwise; changes in a name come on top.
UniProt Q9UBG3: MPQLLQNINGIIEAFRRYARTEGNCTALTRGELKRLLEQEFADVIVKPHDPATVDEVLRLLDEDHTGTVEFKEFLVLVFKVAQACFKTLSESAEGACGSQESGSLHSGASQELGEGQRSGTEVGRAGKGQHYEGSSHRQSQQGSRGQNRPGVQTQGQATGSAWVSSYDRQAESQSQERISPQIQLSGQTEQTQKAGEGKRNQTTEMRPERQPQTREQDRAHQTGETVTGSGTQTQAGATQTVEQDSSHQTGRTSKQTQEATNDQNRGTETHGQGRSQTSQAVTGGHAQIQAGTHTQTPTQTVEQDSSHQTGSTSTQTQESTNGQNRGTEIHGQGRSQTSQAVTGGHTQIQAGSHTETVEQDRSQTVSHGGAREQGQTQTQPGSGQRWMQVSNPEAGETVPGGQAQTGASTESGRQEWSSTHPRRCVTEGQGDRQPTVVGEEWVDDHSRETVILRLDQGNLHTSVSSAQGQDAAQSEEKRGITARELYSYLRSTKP
UniProt O43310: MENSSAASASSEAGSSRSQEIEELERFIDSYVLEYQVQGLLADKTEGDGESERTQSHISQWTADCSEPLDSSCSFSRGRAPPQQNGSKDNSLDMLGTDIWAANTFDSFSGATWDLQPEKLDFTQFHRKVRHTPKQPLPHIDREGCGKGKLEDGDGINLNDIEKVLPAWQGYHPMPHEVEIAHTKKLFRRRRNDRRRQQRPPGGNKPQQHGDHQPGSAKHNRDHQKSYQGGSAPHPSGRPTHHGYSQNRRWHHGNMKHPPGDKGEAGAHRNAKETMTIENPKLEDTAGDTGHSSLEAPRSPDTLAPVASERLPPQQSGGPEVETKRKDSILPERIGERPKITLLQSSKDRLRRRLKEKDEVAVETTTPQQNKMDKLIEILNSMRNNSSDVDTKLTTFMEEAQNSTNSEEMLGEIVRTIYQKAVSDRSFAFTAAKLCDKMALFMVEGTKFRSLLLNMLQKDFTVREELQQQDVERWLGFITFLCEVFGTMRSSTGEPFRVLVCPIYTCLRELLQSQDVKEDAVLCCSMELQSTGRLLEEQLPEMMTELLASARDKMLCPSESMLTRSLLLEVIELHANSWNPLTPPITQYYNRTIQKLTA
UniProt O95476: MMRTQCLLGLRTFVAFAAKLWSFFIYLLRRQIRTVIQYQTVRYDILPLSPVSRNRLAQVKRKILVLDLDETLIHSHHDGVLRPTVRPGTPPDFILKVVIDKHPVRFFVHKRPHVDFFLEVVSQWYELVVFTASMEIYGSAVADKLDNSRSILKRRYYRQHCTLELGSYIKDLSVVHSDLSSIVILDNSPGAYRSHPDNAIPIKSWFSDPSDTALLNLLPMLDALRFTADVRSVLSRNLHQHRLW
UniProt Q7LFL8: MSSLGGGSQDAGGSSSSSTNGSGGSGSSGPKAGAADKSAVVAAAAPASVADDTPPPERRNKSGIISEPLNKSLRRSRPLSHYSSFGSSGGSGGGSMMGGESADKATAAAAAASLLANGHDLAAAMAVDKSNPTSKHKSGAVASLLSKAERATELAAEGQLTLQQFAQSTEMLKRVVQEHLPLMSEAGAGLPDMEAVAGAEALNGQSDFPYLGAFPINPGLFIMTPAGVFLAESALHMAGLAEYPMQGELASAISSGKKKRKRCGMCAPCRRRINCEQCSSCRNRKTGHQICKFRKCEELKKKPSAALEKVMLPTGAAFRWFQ
UniProt Q16527: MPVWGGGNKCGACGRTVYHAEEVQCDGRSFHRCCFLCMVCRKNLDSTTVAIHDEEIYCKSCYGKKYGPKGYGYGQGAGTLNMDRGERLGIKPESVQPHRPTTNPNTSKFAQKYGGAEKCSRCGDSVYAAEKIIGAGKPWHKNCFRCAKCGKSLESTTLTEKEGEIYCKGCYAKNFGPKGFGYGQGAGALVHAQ
UniProt Q9Y6M4: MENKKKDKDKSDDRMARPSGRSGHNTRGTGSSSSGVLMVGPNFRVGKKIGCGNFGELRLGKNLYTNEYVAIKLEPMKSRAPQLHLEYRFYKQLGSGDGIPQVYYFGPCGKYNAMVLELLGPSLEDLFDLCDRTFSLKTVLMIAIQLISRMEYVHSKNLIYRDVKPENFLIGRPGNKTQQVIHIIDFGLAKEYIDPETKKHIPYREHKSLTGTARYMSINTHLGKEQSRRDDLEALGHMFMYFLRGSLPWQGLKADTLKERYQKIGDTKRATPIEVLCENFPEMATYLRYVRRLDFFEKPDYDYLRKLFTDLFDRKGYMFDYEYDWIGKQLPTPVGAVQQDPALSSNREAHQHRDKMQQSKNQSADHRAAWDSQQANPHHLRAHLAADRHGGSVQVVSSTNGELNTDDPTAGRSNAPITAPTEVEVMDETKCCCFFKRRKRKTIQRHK
UniProt Q86T23: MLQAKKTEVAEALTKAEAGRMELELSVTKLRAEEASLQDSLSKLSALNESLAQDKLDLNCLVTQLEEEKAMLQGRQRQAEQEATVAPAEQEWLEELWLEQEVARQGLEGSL
UniProt Q8NI51: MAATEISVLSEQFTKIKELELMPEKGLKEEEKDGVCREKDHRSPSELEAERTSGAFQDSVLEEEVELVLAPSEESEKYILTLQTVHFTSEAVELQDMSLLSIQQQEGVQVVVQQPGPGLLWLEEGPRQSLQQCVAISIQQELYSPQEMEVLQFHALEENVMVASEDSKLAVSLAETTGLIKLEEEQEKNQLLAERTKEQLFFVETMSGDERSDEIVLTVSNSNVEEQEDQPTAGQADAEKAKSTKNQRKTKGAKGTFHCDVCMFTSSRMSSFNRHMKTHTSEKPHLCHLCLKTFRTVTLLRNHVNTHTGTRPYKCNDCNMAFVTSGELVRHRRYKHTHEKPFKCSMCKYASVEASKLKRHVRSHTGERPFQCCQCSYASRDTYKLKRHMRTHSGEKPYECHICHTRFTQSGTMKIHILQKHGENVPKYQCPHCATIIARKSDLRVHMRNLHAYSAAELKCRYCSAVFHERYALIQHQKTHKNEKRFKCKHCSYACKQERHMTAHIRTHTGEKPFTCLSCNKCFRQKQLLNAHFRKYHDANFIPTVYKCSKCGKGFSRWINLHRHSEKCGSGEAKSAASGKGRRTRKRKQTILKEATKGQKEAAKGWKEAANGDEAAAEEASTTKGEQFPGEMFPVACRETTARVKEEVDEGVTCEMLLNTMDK
UniProt Q9HCP0: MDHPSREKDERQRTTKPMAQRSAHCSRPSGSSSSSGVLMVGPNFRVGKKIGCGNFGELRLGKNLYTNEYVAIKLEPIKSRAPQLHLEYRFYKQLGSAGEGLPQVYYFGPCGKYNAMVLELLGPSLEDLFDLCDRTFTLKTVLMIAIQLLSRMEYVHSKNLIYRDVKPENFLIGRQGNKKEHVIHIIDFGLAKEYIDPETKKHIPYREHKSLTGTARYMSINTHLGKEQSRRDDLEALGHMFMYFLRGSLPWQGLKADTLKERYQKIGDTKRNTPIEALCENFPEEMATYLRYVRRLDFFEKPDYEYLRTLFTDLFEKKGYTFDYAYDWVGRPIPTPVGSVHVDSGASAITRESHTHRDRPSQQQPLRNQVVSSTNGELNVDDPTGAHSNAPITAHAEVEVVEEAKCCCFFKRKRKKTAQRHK
UniProt Q96RY5: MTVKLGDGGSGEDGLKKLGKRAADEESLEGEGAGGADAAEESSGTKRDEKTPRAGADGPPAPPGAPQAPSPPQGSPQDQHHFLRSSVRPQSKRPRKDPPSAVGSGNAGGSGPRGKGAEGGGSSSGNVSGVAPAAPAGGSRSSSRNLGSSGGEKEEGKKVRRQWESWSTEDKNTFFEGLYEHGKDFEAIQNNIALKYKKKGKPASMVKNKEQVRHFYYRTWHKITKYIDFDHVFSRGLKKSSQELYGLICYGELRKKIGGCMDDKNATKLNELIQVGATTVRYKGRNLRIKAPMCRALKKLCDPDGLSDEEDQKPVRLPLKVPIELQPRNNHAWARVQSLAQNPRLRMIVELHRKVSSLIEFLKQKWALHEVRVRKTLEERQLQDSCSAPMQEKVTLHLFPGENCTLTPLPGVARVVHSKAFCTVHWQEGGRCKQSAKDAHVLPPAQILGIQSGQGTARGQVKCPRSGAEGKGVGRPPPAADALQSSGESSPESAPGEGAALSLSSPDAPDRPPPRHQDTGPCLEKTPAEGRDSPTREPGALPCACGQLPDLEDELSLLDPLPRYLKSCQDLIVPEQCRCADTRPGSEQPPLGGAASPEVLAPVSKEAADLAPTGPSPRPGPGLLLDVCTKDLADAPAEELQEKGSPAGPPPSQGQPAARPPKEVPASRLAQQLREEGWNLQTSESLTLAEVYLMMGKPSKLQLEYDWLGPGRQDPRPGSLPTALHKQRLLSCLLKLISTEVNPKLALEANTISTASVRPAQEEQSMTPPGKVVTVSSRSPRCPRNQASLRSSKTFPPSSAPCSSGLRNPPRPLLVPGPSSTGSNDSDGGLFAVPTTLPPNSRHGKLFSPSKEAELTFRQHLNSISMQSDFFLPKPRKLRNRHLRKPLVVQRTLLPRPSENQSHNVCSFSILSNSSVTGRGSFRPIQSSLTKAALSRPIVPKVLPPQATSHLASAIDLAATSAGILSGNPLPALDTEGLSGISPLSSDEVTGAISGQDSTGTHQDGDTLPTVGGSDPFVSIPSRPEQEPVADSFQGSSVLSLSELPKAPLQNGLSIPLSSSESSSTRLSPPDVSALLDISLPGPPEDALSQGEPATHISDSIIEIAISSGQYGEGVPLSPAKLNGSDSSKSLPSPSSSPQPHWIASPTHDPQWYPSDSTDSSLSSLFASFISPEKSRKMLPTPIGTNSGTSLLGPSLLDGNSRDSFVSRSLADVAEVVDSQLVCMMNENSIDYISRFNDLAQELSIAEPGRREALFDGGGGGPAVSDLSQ
UniProt Q8N6G5: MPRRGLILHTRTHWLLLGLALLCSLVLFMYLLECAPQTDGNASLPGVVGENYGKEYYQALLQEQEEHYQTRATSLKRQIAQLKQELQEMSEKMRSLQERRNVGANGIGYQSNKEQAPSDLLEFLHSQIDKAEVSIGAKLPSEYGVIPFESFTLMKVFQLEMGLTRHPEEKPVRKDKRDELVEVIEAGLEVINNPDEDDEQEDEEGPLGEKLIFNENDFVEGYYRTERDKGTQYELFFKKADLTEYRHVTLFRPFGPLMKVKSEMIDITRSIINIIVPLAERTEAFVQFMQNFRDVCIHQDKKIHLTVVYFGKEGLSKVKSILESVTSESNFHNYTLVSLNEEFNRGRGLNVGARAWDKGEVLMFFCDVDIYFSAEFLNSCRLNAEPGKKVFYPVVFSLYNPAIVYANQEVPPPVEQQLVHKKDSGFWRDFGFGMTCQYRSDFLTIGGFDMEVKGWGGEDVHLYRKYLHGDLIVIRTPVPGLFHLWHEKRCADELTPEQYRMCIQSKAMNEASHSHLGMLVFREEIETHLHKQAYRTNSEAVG
UniProt Q9NQC7: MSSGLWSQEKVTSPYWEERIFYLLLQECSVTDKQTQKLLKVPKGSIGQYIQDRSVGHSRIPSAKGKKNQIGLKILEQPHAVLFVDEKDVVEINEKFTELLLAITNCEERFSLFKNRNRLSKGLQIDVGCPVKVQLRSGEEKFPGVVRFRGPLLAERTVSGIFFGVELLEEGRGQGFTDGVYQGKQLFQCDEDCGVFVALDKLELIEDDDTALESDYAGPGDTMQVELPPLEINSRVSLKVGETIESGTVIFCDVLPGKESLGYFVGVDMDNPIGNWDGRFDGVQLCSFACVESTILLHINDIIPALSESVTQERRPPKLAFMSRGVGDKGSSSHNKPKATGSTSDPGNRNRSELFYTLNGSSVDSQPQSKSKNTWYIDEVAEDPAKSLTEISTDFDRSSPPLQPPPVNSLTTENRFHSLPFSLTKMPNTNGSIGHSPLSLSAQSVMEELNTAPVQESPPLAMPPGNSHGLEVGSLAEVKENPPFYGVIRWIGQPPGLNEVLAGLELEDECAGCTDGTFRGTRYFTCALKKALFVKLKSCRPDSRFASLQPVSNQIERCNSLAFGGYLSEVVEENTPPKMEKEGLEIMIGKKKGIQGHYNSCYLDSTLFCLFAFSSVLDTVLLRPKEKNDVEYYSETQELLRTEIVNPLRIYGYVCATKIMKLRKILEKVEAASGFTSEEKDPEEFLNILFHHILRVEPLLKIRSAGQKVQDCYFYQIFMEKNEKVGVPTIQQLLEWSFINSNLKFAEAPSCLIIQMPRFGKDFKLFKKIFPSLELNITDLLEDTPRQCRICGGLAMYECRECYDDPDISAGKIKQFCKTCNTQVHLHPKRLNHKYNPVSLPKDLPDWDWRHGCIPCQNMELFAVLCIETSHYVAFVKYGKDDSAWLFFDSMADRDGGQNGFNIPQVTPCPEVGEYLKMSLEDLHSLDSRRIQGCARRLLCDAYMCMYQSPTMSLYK
UniProt P48729: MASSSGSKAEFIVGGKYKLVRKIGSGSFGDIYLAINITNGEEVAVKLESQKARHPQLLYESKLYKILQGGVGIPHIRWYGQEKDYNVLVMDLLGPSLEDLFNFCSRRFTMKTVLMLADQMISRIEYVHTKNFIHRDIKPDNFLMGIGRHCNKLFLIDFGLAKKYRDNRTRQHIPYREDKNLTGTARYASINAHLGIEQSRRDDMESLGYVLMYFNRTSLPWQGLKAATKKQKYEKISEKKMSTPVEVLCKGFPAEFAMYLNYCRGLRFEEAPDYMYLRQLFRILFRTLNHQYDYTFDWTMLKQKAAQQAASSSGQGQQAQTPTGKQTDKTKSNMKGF

[1] = compound: CNC(=O)C1=CC=CC=C1NC2=NC(=NC=C2Cl)NC3=C(C=C(C=C3)N4CCOCC4)OC
How it was run: as §1

defactinib = compound: CNC(=O)c1ccc(Nc2ncc(C(F)(F)F)c(NCc3nccnc3N(C)S(C)(=O)=O)n2)cc1 [defactinib]
How it was run: as §1

alisertib = compound: COc1cc(Nc2ncc3c(n2)-c2ccc(Cl)cc2C(c2c(F)cccc2OC)=NC3)ccc1C(=O)O [alisertib]
How it was run: as §1

gefitinib = compound: COc1cc2ncnc(Nc3ccc(F)c(Cl)c3)c2cc1OCCCN1CCOCC1 [gefitinib]
How it was run: as §1

pictilisib = compound: CS(=O)(=O)N1CCN(Cc2cc3nc(-c4cccc5[nH]ncc45)nc(N4CCOCC4)c3s2)CC1 [pictilisib]
How it was run: as §1

crizotinib = compound: C[C@@H](Oc1cc(-c2cnn(C3CCNCC3)c2)cnc1N)c1c(Cl)ccc(F)c1Cl [crizotinib]
How it was run: as §1

doramapimod = compound: Cc1ccc(-n2nc(C(C)(C)C)cc2NC(=O)Nc2ccc(OCCN3CCOCC3)c3ccccc23)cc1 [doramapimod]
How it was run: as §1

bafetinib = compound: Cc1ccc(NC(=O)c2ccc(CN3CC[C@H](N(C)C)C3)c(C(F)(F)F)c2)cc1Nc1nccc(-c2cncnc2)n1 [bafetinib]
How it was run: as §1

[2] = compound: CNc1nc(-c2ccc3c(N)n[nH]c3c2)cc(N2C[C@@H](C(=O)NC3CCCCC3)CC[C@H]2C)n1
How it was run: as §1

encorafenib = compound: COC(=O)N[C@@H](C)CNc1nccc(-c2cn(C(C)C)nc2-c2cc(Cl)cc(NS(C)(=O)=O)c2F)n1 [encorafenib]
How it was run: as §1

[3] = compound: COC(=O)[C@H](CCSC)NC(=O)C1=C(C=C(C=C1)NC[C@H](CS)N)C2=CC=CC=C2
How it was run: as §1

duvelisib = compound: C[C@H](Nc1ncnc2nc[nH]c12)c1cc2cccc(Cl)c2c(=O)n1-c1ccccc1 [duvelisib]
How it was run: as §1

tozasertib = compound: Cc1cc(Nc2cc(N3CCN(C)CC3)nc(Sc3ccc(NC(=O)C4CC4)cc3)n2)n[nH]1 [tozasertib]
How it was run: as §1

[4] = compound: COc1cc2nc(-c3cc(F)ccc3O)nc(N[C@@H]3CNC[C@H]3C(C)(C)O)c2cc1OC
How it was run: as §1

lapatinib = compound: CS(=O)(=O)CCNCc1ccc(-c2ccc3ncnc(Nc4ccc(OCc5cccc(F)c5)c(Cl)c4)c3c2)o1 [lapatinib]
How it was run: as §1

alvocidib = compound: CN1CC[C@H](c2c(O)cc(O)c3c(=O)cc(-c4ccccc4Cl)oc23)[C@H](O)C1 [alvocidib]
How it was run: as §1

[5] = compound: C[C@H](C1=CC=C(C=C1)C(=O)NC2=C3C=CNC3=NC=C2)N
How it was run: as §1

gandotinib = compound: Cc1cc(Nc2cc(CN3CCOCC3)c3nc(C)c(Cc4ccc(Cl)cc4F)n3n2)n[nH]1 [gandotinib]
How it was run: as §1

[6] = compound: Cc1cccc(CC(=O)N2CCc3c2ccc(-c2cn(C)c4ncnc(N)c24)c3F)n1
How it was run: as §1

Measured: log2 fold change

CSPG5 isoform 2 (UniProt O95196)
inactive: Tubastatin A -0.172 | [1] -0.218 | defactinib 0.062 | alisertib 0.087 | gefitinib 0.118 | pictilisib 0.013 | crizotinib 0.012 | doramapimod -0.078 | bafetinib -0.118

CTDSP1 isoform 3 (UniProt Q9GZU7)
inactive: pictilisib -0.028 | bafetinib -0.05

CRNN (UniProt Q9UBG3)
inactive: defactinib 1.03 | alisertib -0.392 | gefitinib 0.289

CRTC3 (UniProt Q6UUV7)
inactive: Tubastatin A 0.044 | [1] -0.044 | defactinib 0.044 | [2] 0.091 | encorafenib 0.089 | [3] -0.066 | pictilisib -0.13 | crizotinib 0.09 | duvelisib 0 | tozasertib 0.061 | doramapimod -0.012 | bafetinib -0.012

CTIF (UniProt O43310)
inactive: defactinib -0.131

CTDNEP1 (UniProt O95476)
inactive: [2] 0.009 | crizotinib 0.008 | duvelisib 0.058 | doramapimod -0.055

CTBP1 (UniProt E7ESU7)
inactive: alisertib 0.272 | gefitinib -0.073

CST4 (UniProt P01036)
inactive: Tubastatin A 0.536 | [1] -0.054 | [2] -0.369 | encorafenib -0.177 | [3] -0.081 | [4] 0.115 | lapatinib 0.099 | pictilisib 0.025 | duvelisib 0.045 | tozasertib 0.693 | bafetinib 0.035

CXXC5 (UniProt Q7LFL8)
inactive: [2] 0.212 | duvelisib 0.188

CSRNP2 (UniProt Q9H175)
inactive: Tubastatin A -0.024 | [1] 0.008 | [2] 0.196 | duvelisib 0.054

CRY1 (UniProt Q16526)
inactive: alvocidib -0.132 | alisertib -0.055 | gefitinib -0.198 | [5] -0.098 | gandotinib 0.07 | [6] 0.033

CRYL1 (UniProt Q9Y2S2)
inactive: [1] 0.223 | defactinib -0.383 | [2] 0.096 | [4] -0.038 | lapatinib -0.152 | crizotinib -0.074 | duvelisib 0.049 | doramapimod -0.043

CSRP2 (UniProt Q16527)
inactive: alvocidib -0.028 | encorafenib -0.046 | [3] -0.056 | pictilisib -0.063 | crizotinib -0.157 | [5] -0.018 | gandotinib -0.068 | tozasertib 0.118 | doramapimod 0.051 | bafetinib 0.072 | [6] 0.052

CSNK1G3 isoform 4 (UniProt Q9Y6M4)
inactive: [4] 0.53 | lapatinib -0.035

CTNNBIP1 (UniProt Q9NSA3)
inactive: [1] 0.126 | [2] 0.465 | duvelisib 0.095

CROCCP2 (UniProt Q86T23)
inactive: [1] 0.025 | encorafenib 0.137 | [3] -0.015 | alisertib -0.082 | [4] -0.084 | gefitinib 0.204 | lapatinib 0.118 | crizotinib 0.097 | tozasertib -0.141 | doramapimod -0.039

CTCFL isoform 7 (UniProt Q8NI51)
inactive: encorafenib 0.056 | [3] 0.114 | alisertib -0.038 | gefitinib 0.046 | pictilisib -0.01 | crizotinib -0.087 | tozasertib -0.173 | doramapimod -0.148 | bafetinib -0.015

CRAT (UniProt P43155)
inactive: Tubastatin A -0.002 | [1] 0.044 | defactinib 0.022 | [2] 0.193 | [4] 0.058 | lapatinib 0.076 | pictilisib -0.268 | crizotinib 0.011 | duvelisib -0.095 | doramapimod 0.011 | bafetinib 0.016

CSNK1G1 (UniProt Q9HCP0)
inactive: [1] -0.058 | [2] -0.018 | encorafenib -0.335 | [3] -0.239 | [4] 0.291 | lapatinib -0.178 | pictilisib 0.215 | duvelisib 0.001 | tozasertib -0.212 | bafetinib -0.071

CT47B1 (UniProt P0C2W7)
inactive: Tubastatin A 0.076 | [1] -0.05 | defactinib 0.346 | [2] 0.026 | encorafenib -0.034 | [3] -0.057 | alisertib -0.028 | [4] 0.045 | gefitinib 0.122 | lapatinib 0.11 | pictilisib 0.134 | crizotinib -0.031 | duvelisib 0.131 | tozasertib 0.031 | doramapimod -0.097 | bafetinib 0.176

CRAMP1 (UniProt Q96RY5)
inactive: defactinib 0.02 | [2] -0.027 | encorafenib 0.098 | [3] 0.106 | duvelisib 0.049 | tozasertib -0.065

CSGALNACT2 (UniProt Q8N6G5)
inactive: [1] 0.113 | [2] 0.135 | [4] -0.081 | lapatinib 0.179 | crizotinib -0.112 | duvelisib -0.043 | doramapimod 0.069

CYLD (UniProt Q9NQC7)
inactive: [1] -0.045 | crizotinib -0.019 | doramapimod -0.083

Reprinted from the listing (2 entries):
CSGALNACT2 (UniProt Q8N6G5)
inactive: [1] 0.113 | [2] 0.135 | [4] -0.081 | lapatinib 0.179 | crizotinib -0.112 | duvelisib -0.043 | doramapimod 0.069

CYLD (UniProt Q9NQC7)
inactive: [1] -0.045 | crizotinib -0.019 | doramapimod -0.083

(list continues)

CYFIP1, A0A0G2JRV9
inactive: alisertib -0.321 | [4] 0.074 | gefitinib -0.246 | lapatinib -0.13

CSNK1A1 isoform 3 (UniProt P48729)
inactive: Tubastatin A -0.138 | [2] 0.068 | duvelisib -0.077

CSAD isoform 3 (UniProt Q9Y600)
inactive: Tubastatin A 0.082 | [1] -0.044 | pictilisib -0.123 | crizotinib -0.123 | doramapimod 0.035 | bafetinib 0.046

CRY2 (UniProt Q49AN0)
inactive: alvocidib -0.106 | defactinib -0.145 | alisertib -0.024 | gefitinib 0.047 | [5] -0.044 | gandotinib 0.183 | [6] 0.085

CSF1 (UniProt P09603)
inactive: alvocidib -0.004 | [5] 0.016 | gandotinib 0.059 | [6] 0.033

CSNK2A1, A0A2R8Y4D6
inactive: [4] 0.06 | lapatinib -0.132

CRTC2 (UniProt H0YDQ8)
inactive: Tubastatin A -0.018 | defactinib 0.125

Source: the supplement of paper PMC10849652
